These are yes or no findings as the source states them, for the method shown. In cells and extracts the contact can be indirect. Binding calls can cover weak binding; strength is not graded here. Where a sequence is shown, tags or fusion partners need not be part of it.

For this test, the target named is T1, CATSPER4-HA (mouse) (UniProt Q8BVN3).
T1 sequence: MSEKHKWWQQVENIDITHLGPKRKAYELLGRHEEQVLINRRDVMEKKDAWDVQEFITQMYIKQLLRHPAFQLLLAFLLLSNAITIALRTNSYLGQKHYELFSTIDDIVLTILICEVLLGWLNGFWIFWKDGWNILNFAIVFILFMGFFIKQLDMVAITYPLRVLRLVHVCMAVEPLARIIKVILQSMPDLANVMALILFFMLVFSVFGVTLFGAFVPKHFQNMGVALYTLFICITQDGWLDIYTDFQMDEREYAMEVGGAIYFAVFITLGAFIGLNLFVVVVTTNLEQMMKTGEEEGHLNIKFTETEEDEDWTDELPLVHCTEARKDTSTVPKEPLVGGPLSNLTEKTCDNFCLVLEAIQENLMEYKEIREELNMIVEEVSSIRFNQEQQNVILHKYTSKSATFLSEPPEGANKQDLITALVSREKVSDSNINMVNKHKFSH
In words: co-IP; HA- and Flag-tagged constructs co-transfected into 293T cells, precipitated with anti-HA antibodies, blotted with anti-HA and anti-Flag antibodies.

In the case of CATSPERθ-Flag (mouse), the binding result is “binds”.

Values taken from article PMC10055175.
